40 targets from the supplement of paper PMC12067093, “Discovery and optimisation of a covalent ligand for TRIM25 and its application to targeted protein ubiquitination” (Chemical Science, 2025) can be followed below.

Sequences of proteins named here, by UniProt entry; tags and fusion partners are left off. A change or cut given only in a name is not applied to a line headed by its entry.
UniProt Q7Z2W4: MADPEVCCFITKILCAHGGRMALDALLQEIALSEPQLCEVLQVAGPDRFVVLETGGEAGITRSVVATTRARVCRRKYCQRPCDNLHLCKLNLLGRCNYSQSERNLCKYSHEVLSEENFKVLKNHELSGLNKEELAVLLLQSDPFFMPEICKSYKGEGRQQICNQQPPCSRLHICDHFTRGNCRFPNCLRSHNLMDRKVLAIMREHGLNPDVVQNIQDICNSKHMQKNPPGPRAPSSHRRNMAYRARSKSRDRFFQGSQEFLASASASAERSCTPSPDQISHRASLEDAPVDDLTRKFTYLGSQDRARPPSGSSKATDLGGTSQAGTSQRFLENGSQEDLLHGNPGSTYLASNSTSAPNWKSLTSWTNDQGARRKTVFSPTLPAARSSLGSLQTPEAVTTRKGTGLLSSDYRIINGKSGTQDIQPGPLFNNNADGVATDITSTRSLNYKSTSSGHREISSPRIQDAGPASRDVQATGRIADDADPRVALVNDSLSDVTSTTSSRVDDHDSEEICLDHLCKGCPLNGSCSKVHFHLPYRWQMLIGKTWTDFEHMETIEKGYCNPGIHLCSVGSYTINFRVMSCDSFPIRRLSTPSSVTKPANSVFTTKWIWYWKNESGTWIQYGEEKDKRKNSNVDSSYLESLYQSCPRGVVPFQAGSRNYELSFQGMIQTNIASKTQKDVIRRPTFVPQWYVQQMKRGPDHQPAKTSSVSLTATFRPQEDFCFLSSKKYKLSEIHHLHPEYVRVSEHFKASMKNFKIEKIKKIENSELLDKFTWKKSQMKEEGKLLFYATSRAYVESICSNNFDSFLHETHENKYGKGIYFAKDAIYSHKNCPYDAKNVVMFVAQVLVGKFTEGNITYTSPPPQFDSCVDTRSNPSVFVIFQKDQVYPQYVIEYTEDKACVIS
UniProt Q8TCF1: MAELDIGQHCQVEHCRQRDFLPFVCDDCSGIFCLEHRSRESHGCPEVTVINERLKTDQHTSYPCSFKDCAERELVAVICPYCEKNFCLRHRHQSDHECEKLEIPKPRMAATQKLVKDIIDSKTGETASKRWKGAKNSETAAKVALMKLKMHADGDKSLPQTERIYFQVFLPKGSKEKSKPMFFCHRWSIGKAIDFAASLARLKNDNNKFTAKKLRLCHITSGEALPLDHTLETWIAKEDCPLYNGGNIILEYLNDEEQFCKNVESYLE
UniProt A8MPS7: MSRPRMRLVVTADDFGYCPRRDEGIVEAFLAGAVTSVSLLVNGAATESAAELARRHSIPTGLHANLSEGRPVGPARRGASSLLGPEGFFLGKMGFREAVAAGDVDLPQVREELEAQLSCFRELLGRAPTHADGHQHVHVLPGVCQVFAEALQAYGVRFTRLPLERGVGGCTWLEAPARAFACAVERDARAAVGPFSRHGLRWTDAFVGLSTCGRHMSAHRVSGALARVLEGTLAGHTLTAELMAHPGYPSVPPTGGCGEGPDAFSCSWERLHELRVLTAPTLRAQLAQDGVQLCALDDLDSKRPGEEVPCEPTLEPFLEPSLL
UniProt Q9UGR2: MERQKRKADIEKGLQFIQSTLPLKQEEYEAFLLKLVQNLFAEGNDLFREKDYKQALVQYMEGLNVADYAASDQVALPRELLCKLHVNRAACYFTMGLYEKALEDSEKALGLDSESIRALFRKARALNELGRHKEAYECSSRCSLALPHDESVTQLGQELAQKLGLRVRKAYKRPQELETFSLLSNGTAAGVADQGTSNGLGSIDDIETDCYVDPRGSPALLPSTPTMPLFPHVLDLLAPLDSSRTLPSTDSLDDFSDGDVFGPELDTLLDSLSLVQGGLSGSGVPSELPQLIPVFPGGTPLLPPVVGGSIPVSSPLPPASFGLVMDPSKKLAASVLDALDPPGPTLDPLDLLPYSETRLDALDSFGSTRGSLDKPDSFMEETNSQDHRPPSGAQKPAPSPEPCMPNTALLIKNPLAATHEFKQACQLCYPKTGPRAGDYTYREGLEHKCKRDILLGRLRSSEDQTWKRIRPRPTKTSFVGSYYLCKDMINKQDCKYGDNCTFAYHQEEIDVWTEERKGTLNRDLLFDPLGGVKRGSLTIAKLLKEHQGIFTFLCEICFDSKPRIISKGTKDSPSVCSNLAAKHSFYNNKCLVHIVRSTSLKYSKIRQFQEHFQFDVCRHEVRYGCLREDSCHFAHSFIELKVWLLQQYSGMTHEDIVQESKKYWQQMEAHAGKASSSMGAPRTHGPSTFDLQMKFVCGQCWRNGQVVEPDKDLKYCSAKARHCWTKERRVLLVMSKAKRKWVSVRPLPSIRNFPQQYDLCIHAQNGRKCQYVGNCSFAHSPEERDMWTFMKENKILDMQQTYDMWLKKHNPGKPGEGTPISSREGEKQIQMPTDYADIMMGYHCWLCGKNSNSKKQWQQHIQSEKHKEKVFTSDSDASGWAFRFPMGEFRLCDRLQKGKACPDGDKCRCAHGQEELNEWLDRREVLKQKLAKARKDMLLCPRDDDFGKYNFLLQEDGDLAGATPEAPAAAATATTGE
UniProt Q96H79: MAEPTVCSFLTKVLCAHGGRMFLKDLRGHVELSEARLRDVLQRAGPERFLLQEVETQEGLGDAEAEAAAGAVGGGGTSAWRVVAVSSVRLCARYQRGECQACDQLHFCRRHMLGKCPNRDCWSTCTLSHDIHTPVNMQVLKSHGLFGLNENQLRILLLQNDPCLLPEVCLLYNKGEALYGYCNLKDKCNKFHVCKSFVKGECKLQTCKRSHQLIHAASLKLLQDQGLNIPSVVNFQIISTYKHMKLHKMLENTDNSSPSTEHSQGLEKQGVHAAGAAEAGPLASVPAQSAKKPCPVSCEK
UniProt Q9H0D6: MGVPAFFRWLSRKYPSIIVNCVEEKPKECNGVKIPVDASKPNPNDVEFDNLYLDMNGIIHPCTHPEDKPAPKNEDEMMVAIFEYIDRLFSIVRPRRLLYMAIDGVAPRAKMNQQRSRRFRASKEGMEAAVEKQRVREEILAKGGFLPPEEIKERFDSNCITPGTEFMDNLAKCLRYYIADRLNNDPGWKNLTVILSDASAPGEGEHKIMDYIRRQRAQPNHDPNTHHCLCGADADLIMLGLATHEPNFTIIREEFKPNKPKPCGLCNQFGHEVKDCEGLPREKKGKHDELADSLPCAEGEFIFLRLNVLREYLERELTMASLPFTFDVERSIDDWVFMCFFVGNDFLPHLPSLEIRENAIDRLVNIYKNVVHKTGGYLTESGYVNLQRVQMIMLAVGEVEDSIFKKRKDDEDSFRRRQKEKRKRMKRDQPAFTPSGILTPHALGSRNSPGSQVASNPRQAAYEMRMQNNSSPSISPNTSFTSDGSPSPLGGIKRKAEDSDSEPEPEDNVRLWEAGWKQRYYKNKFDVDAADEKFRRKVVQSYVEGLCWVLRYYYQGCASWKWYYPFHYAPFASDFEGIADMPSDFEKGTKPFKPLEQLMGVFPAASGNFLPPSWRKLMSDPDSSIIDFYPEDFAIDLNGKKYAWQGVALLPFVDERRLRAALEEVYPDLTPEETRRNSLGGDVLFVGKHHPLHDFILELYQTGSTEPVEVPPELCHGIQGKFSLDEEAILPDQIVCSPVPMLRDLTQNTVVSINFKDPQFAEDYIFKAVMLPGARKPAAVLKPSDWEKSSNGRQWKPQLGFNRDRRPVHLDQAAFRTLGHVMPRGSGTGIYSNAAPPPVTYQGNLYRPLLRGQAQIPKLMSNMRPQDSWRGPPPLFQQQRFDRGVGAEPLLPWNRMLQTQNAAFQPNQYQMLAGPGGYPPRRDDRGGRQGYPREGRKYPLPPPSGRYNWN
UniProt P13010: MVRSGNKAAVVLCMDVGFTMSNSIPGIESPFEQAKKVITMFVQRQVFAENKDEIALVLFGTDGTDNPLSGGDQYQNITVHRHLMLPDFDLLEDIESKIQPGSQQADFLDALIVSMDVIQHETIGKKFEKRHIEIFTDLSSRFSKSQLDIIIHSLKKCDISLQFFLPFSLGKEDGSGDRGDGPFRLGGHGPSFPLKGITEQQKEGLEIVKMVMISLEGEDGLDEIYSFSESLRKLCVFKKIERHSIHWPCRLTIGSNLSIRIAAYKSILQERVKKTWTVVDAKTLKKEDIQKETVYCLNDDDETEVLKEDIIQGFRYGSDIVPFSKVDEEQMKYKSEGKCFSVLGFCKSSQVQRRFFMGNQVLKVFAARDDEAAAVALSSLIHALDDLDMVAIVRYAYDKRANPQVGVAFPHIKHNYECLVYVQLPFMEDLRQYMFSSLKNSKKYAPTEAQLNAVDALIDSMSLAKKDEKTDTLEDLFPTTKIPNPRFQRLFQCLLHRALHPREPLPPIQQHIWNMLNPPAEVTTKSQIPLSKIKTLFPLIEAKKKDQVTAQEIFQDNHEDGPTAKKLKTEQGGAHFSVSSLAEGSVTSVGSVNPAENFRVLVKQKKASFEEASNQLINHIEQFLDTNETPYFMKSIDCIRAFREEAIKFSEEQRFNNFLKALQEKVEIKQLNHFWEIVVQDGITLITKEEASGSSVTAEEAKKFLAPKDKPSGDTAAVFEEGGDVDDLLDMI
UniProt Q96QU8: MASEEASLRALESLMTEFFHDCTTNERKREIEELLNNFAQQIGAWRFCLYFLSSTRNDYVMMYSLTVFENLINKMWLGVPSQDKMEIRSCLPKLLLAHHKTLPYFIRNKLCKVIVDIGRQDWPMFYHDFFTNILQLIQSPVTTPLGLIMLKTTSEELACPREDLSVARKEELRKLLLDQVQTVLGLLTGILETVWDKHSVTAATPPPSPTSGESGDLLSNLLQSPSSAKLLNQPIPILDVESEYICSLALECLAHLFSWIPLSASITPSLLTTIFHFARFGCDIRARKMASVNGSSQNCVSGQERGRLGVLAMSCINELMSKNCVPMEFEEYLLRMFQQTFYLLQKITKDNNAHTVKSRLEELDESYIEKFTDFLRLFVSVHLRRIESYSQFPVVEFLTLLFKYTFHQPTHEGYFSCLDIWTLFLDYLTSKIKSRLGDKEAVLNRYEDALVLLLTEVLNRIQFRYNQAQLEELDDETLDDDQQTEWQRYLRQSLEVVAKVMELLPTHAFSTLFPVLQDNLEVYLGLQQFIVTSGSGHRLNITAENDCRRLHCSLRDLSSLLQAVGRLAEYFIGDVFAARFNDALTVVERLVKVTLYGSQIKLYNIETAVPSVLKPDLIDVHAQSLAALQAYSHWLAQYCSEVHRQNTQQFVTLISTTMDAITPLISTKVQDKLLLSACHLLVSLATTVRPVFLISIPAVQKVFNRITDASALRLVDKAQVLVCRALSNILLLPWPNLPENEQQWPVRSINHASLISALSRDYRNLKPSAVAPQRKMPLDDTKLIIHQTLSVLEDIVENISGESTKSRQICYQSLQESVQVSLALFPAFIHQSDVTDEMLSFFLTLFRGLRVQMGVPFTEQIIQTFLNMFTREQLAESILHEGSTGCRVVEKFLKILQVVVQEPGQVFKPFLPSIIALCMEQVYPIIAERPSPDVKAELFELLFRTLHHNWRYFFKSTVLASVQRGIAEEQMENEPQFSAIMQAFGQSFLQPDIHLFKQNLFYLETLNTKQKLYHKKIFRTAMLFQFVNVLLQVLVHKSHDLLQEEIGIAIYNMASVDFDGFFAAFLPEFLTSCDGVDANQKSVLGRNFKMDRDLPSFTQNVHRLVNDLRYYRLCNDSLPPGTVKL
UniProt Q86WB0: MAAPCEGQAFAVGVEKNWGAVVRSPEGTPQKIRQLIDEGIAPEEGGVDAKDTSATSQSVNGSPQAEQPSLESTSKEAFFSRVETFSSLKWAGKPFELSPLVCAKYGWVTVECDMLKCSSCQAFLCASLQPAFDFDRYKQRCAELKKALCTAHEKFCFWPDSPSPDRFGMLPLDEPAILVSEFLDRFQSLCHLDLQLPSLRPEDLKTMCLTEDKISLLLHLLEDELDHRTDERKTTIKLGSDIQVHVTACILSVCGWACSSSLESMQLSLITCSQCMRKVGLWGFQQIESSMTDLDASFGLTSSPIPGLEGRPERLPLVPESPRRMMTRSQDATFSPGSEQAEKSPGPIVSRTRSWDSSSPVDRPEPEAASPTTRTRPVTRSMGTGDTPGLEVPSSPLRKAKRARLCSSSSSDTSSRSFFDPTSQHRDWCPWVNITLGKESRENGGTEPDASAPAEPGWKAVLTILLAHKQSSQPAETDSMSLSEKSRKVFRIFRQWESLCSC
UniProt O43542: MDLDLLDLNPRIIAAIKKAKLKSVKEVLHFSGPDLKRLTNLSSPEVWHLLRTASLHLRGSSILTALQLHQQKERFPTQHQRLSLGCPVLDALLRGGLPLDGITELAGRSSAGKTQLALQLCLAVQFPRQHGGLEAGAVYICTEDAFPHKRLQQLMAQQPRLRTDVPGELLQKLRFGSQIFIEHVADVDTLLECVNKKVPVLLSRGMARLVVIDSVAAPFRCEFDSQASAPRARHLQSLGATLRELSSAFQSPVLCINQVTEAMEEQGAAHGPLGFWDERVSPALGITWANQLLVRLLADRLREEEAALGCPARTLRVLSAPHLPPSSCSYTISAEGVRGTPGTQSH

Some of the results follow.
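Also: competitive profiling in live THP-1 cells: cysteine peptides tagged with an iodoacetamide desthiobiotin (IA-DTB) probe, intensity after compound treatment relative to DMSO-treated cells.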

Compound in the assay: Cc1cc(ccc1-c1ccccc1)C(=O)N1CCCN(CC1)C(=O)CCl [compound 10]
The assay can be described thus: probe-labelled cysteine peptide fold change vs DMSO (competition) (log2 fold change); higher = less target engagement (more negative = stronger competition). The conditions noted are these: 10 µM; THP-1; incubation time: 4 h.
In the case of “ZC3HAV1_Q7Z2W4_513_VDDHDSEEICLDHLCK (UniProt Q7Z2W4)”, the “probe-labelled cysteine peptide fold change” value stood at 0.0207.

Turning to “ZFAND1_Q8TCF1_33_DFLPFVCDDCSGIFCLEHR (UniProt Q8TCF1)”, the “probe-labelled cysteine peptide fold change” value is 0.107. With “YDJC_A8MPS7_294_AQLAQDGVQLCALDDLDSK (UniProt A8MPS7)” the figure was -0.515; with “ZC3H7B_Q9UGR2_909_CAHGQEELNEWLDRR (UniProt Q9UGR2)”, -0.0432. With “ZC3HAV1L_Q96H79_7_AEPTVCSFLTK (UniProt Q96H79)” the figure was 0.0522; with “XRN2_Q9H0D6_296_HDELADSLPCAEGEFIFLR (UniProt Q9H0D6)”, 0.234; with “ZFAND1_Q8TCF1_10+15_AELDIGQHCQVEHCR (UniProt Q8TCF1)”, -0.155. With “ZC3HAV1L_Q96H79_125_DCWSTCTLSHDIHTPVNMQVLK (UniProt Q96H79)” the figure was -0.0871; with “XPO7_Q9UIA9_1038_QQAMHLCFENLMEGIER (UniProt Q9UIA9)”, 0.0781; with “ZC3H7B_Q9UGR2_91_AACYFTMGLYEK (UniProt Q9UGR2)”, 0.135. As to “ZBTB44_Q8NCP5_272_MADYVTCESTK (UniProt Q8NCP5)”, the “probe-labelled cysteine peptide fold change” value is -0.268.

For the target “YWHAQ_P27348_134_YLAEVACGDDR (UniProt P27348)”, the “probe-labelled cysteine peptide fold change” value is -0.0267. With “ZC3H10_Q96K80_79_NEFIFCHDFQNK (UniProt Q96K80)” the figure was -0.0348; with “XRN2_Q9H0D6_296_KGKHDELADSLPCAEGEFIFLR (UniProt Q9H0D6)”, 0.00821. With “YDJC_A8MPS7_119_EAVAAGDVDLPQVREELEAQLSCFR (UniProt A8MPS7)” the figure was 0.183; with “XRCC5_P13010_339_CFSVLGFCK (UniProt P13010)”, -0.192. With “ZCCHC3_Q9NUD5_178_ICFQGDEGACPTR (UniProt Q9NUD5)” the figure was -0.101; with “ZBTB43_O43298_450_HVTSCTK (UniProt O43298)”, -0.0463. In the case of “ZFAND1_Q8TCF1_184_SKPMFFCHR (UniProt Q8TCF1)”, the “probe-labelled cysteine peptide fold change” value is -0.012. In the case of “XPO6_Q96QU8_324_NCVPMEFEEYLLR (UniProt Q96QU8)”, the “probe-labelled cysteine peptide fold change” value is -0.0141. With “XRCC5_P13010_249_HSIHWPCR (UniProt P13010)” the figure was 0.0754; with “YWHAG_P61981_112_NCSETQYESK (UniProt P61981)”, 0.0697; with “XPO6_Q96QU8_886_EQLAESILHEGSTGCR (UniProt Q96QU8)”, -0.217. With “YTHDC2_Q9H6S0_777_MPLQELCLHTK (UniProt Q9H6S0)” the figure was -0.0301. With “ZC3HAV1L_Q96H79_99+108_GECQACDQLHFCR (UniProt Q96H79)” the figure was -0.126; with “YWHAE_P62258_98_LICCDILDVLDK (UniProt P62258)”, 0.136. For XRN2_Q9H0D6_29_ECNGVK (UniProt Q9H0D6), the “probe-labelled cysteine peptide fold change” value was -0.154. With “ZC3H14_Q6PJT7_641_CLFVHPNCK (UniProt Q6PJT7)” the figure was 0.151; with “ZC3HC1_Q86WB0_112_YGWVTVECDMLK (UniProt Q86WB0)”, -0.111; with “ZC3H7A_Q8IWR0_572_LLQEHLGEFIFLCEK (UniProt Q8IWR0)”, -0.0444. With “ZBTB1_Q9Y2K1_532_HSACPFR (UniProt Q9Y2K1)” the figure was 0.00859. Regarding “XRCC3_O43542_310_LREEEAALGCPAR (UniProt O43542)”, the “probe-labelled cysteine peptide fold change” value is -0.161.

Take “XRCC1_P18887_20_HVVSCSSQDSTHCAENLLK (UniProt P18887)”: the “probe-labelled cysteine peptide fold change” value was 0.234. Turning to “YKT6_O15498_66_EQDYLCHVYVR (UniProt O15498)”, the “probe-labelled cysteine peptide fold change” value turned out to be 0.139. With “ZC3H15_Q8WU90_105_SVVCAFFK (UniProt Q8WU90)” the figure was -0.0248; with “ZC3HAV1_Q7Z2W4_7_ADPEVCCFITK (UniProt Q7Z2W4)”, 0.158.

Consider “YWHAH_Q04917_112_NCNDFQYESK (UniProt Q04917)”, for which the “probe-labelled cysteine peptide fold change” value turned out to be 0.0168.

In the case of “XPO5_Q9HAV4_977_EVMDLITVCCVSK (UniProt Q9HAV4)”, the “probe-labelled cysteine peptide fold change” value is -0.0762.

Consider “ZC3H4_Q9UPT8_448_AENCPYMHGDFPCK (UniProt Q9UPT8)”, for which the “probe-labelled cysteine peptide fold change” value was 0.143. With “ZC3HAV1_Q7Z2W4_518_VDDHDSEEICLDHLCK (UniProt Q7Z2W4)” the figure was 0.142.
